Test results: US20220298213A1, “IN VIVO ENGINEERED CEREBLON PROTEIN” (Vividion Therapeutics, Inc., priority 2018, published 2022)

Experiment: Global promiscuity, global (TMT) experiment
Settings: targets where 500 μM compound inhibits probe labeling by greater than 40% after 1 hour incubation

SMILES: C=CC(=O)N1CC[C@@H](Oc2ccccc2)[C@H](F)C1
- Global Promiscuity: 0.1528

SMILES: C=CC(=O)N1CC(Oc2cccc(-c3ccccc3OC)c2)C1
- Global Promiscuity: 0.863

SMILES: C=CC(=O)N1CC[C@H](Oc2ccccc2)[C@H](F)C1
- Global Promiscuity: 0.09463

SMILES: C=CC(=O)N1CC(Oc2ccc(Cl)cc2)C1 [drawing 224]
- Global Promiscuity: 0.7851

SMILES: C=CC(=O)N1CCC(Oc2cc(C(N)=O)cc(-c3ccccc3OC)c2)CC1 [drawing 222]
- Global Promiscuity: 0.02643

SMILES: C=CC(=O)N1CCC(Oc2cc(C#N)cc(-c3ccccc3OC)c2)CC1 [drawing 221]
- Global Promiscuity: 0.05484

SMILES: C=CC(=O)N1CCC(S(=O)(=O)c2cccc(-c3ccccc3OC)c2)CC1
- Global Promiscuity: 0.2775
